Measurements reported in PubChem BioAssay AID504793 (Drosophila RNAi Screening Center, 2011).

Screen: 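Whole-genome screen for parts of the DNA damage checkpoint at G2/M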 (primary screen)
System: Drosophila S2R+ cells
Reagent: long dsRNA against Drosophila genes, about 0.25 µg dsRNA per well
Time to read-out: 4 days of dsRNA, then 4 hours of drug before read-out
Challenge: doxorubicin 0.5 µM for 4 hours to cause double-strand breaks, in cells also given a low, harmless dose of dsRNA against nbs to sensitise the assay
Measurement: 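Mitotic index as the number of phospho-histone H3-positive cells in each well following doxorubicin, given as raw counts without normalisation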
Reading the numbers: mitotic cells: higher = more cells in mitosis, weaker G2 arrest
Call rule: 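Genes are called active only when high mitotic counts were reproduced with independent dsRNAs and mitosis was checked for delay without damage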
Calls: active = confirmed in follow-up tests; inactive = not confirmed
The screen tested about 23,000 reagents; below is an unselected part of those with a known target gene and a result. In the full data, 62 (0.27%) were called active. 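Calls come from follow-up tests whose scores are not deposited, so confirmed genes may have low counts here; counts are not normalised per plate.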 The raw values are shown without normalisation. The numbers tell different reagents against one gene apart. Names joined by + are all predicted targets of the reagent.

The opening 5 entries, ahead of the listing:
| predicted target | reagent no. | mitotic cells, replicate 1 | activity call |
| --- | --- | --- | --- |
| CG4438 | 1 | 1 | inactive |
| CG4438 | 2 | 8 | inactive |
| Nopp140 | 1 | 5 | inactive |
| Nopp140 | 2 | 5 | inactive |
| Syn1 + CG7370 | 1 | 11 | inactive |

Main list, from the start:
| predicted target | reagent no. | mitotic cells, replicate 1 | activity call |
| --- | --- | --- | --- |
| CG4438 | 1 | 1 | inactive |
| CG4438 | 2 | 8 | inactive |
| Nopp140 | 1 | 5 | inactive |
| Nopp140 | 2 | 5 | inactive |
| Syn1 + CG7370 | 1 | 11 | inactive |
| Syn1 + CG7370 | 2 | 4 | inactive |
| par-1 | 1 | 4 | inactive |
| par-1 | 2 | 4 | inactive |
| par-1 | 3 | 5 | inactive |
| par-1 | 4 | 6 | inactive |
| par-1 | 5 | 4 | inactive |
| par-1 | 6 | 9 | inactive |
| Cdc50 (Cell division cycle 50) | 1 | 15 | inactive |
| CG16762 | 1 | 5 | inactive |
| Rint1 (RAD50 interactor 1) | 1 | 7 | inactive |
| Rint1 (RAD50 interactor 1) | 2 | 8 | inactive |
| Mgat4a | 1 | 7 | inactive |
| Mgat4a | 2 | 9 | inactive |
| CG15255 | 1 | 4 | inactive |
| CG15255 | 2 | 14 | inactive |
| CG42399 | 1 | 3 | inactive |
| CG42399 | 2 | 5 | inactive |
| cold (coiled) | 1 | 5 | inactive |
| Faa (Fumarylacetoacetase) | 1 | 5 | inactive |
| Tengl4 (Testis EndoG-Like 4) | 1 | 2 | inactive |
| Cyp6a9 (Cytochrome P450 6a9) | 1 | 4 | inactive |
| CG5863 | 1 | 8 | inactive |
| Sol1 | 1 | 6 | inactive |
| Sol1 | 2 | 5 | inactive |
| Sol1 | 3 | 14 | inactive |
| Tmem43 (Transmembrane protein 43) | 1 | 5 | inactive |
| Tmem43 (Transmembrane protein 43) | 2 | 7 | inactive |
| CG16998 | 1 | 4 | inactive |
| CG18542 + CG32939 | 1 | 4 | inactive |
| qjt (quijote) | 1 | 6 | inactive |
| qjt (quijote) | 2 | 11 | inactive |
| maf-S | 1 | 7 | inactive |
| lin-28 | 1 | 5 | inactive |
| Septin5 (Septin 5) | 1 | 4 | inactive |
| Septin5 (Septin 5) | 2 | 3 | inactive |
| Glo1 (Glyoxalase 1) | 1 | 6 | inactive |
| CG3492 | 1 | 1 | inactive |
| CG10140 | 1 | 7 | inactive |
| CG10140 | 2 | 2 | inactive |
| crn (crooked neck) | 1 | 4 | inactive |
| crn (crooked neck) | 2 | 10 | inactive |
| crn (crooked neck) | 3 | 6 | inactive |
